# Results published in article PMC5996148.
# The other results are listed elsewhere or left out.
# Legend:
# Test in all cases: protein microarray (ProtoArray v5.0), streptavidin-Alexa Fluor 647
# Settings in all cases: 3'-biotin; 20 mM Tris (pH 7.5), 5 mM MgCl2, 100 mM KCl, 0.1% Tween-20, A/T-rich and random oligonucleotide blockers; temperature not stated; high values mean tight binding
# [1] = system: cAMP-dependent protein kinase inhibitor gamma (human)
# [2] = system: cAMP-dependent protein kinase type I-beta regulatory subunit (human)
# [3] = system: cAMP-dependent protein kinase type II-beta regulatory subunit (human)
# [4] = system: cDNA FLJ30744 fis, clone FEBRA2000378. (human)
# [5] = system: cDNA clone IMAGE:2906290, complete cds (human)
# [6] = system: cDNA clone IMAGE:3892258 (human)
# [7] = system: cDNA clone IMAGE:3928921, partial cds (human)
# [8] = system: cDNA clone IMAGE:3949276, partial cds (human)
# [9] = system: cDNA clone IMAGE:4292790 (human)
# [10] = system: cDNA clone IMAGE:4396549 (human)
sequence,measurement,setting,value
GGGAGGCTGAGGCAGG [G4-1 biotinylated (PQS2)],binding signal,[1],-0.359 z-score
same,binding signal,[2],-0.36 z-score
same,binding signal,[3],-0.351 z-score
same,binding signal,[4],-0.342 z-score
same,binding signal,[5],-0.355 z-score
same,binding signal,[6],-0.305 z-score
same,binding signal,[7],-0.288 z-score
same,binding signal,[8],-0.246 z-score
same,binding signal,[9],-0.359 z-score
same,binding signal,[10],-0.363 z-score
